In publication PMC5436702:
Results are given in words; binding and its absence hold for the method and conditions named. In cells and extracts the contact can be indirect. Some results given as binding are weak or reduced against the parent protein; the word gives no strength. Tags and fused reporters may be left off the sequences shown.

Chains of the proteins cited; added tags and fusions are not shown. Residues count along the entry.
UniProt Q9LJF3, residues 24-1164: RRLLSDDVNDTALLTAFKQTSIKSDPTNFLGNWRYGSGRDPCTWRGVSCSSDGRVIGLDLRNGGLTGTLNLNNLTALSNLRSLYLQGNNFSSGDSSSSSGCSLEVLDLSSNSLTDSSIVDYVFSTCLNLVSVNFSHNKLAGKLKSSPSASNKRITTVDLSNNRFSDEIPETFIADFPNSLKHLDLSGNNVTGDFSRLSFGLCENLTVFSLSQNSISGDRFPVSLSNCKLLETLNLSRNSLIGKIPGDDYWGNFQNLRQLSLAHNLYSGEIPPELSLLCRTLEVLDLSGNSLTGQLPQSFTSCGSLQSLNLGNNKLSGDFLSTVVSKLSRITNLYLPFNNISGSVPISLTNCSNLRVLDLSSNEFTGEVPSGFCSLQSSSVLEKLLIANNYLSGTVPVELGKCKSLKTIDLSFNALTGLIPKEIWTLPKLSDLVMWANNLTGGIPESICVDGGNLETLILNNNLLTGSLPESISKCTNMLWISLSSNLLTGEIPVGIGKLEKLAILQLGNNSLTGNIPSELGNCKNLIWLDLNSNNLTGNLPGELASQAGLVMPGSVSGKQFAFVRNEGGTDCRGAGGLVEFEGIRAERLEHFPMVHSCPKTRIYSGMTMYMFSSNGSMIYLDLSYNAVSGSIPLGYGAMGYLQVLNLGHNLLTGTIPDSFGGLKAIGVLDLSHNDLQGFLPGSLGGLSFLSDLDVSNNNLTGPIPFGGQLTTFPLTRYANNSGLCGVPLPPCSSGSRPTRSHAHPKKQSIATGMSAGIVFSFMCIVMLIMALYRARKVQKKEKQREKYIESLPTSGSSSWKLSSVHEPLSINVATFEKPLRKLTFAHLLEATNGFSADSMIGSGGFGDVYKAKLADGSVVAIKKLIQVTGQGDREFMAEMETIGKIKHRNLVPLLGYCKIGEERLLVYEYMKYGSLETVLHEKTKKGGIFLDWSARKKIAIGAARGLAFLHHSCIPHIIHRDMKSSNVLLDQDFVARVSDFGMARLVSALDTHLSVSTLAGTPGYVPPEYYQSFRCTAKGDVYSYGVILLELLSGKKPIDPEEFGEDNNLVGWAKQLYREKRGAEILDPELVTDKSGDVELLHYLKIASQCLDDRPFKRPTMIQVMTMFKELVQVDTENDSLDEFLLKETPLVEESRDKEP

Key:
[1] = target: BRI1-LIKE3 (BRL3) tagged with cYFP (Arabidopsis thaliana) (UniProt Q9LJF3); test: split reporter; BiFC with nYFP- and cYFP-tagged proteins transiently expressed in N. benthamiana leaf cells; confocal imaging; mitochondrial marker Mt-rk as transformation control
[2] = target: BRL3 tagged with CFP (Arabidopsis thaliana) (UniProt Q9LJF3); test: FRET or BRET; acceptor photobleaching FRET (CFP donor, YFP acceptor) in leaf epidermis cells of N. benthamiana with transient expression; leaf discs treated with glucose (6% or 2%), 1 uM flg22 or 1 or 100 uM BL

| Binder | binding [1] | binding [2] |
| --- | --- | --- |
| AtHIR2 tagged with nYFP (negative control membrane protein) (protein, UniProt Q9CAR7 1-286) MGQALGCIQVDQSNVAIKETFGKFDEVLEPGCHCLPWCLGSQVAGHLSLRVQQLDVRCETKTKDNVFVTVVASIQYRALAESAQDAFYKLSNTRNQIQAYVFDVIRASVPKLDLDSTFEQKNDIAKTVETELEKAMSHYGYEIVQTLIVDIEPDVHVKRAMNEINAASRMREAASEKAEAEKILQIKRAEGEAESKYLSGMGIARQRQAIVDGLRNSVLAFSESVPGTSSKDVMDMVLVTQYFDTLKEIGASSKSNSVFIPHGPGAVRDIASQIRDGLLQGNSAAE | no binding | – |
| AtRGS1 with a C-terminal YFP tag (protein, UniProt Q8H1F2 1-459) MASGCALHGGCPSDYVAVAISVICFFVLLSRSVLPCLIHKAPRTNSSSFWIPVIQVISSFNLLFSIMMSVNLLRFRTKHWWRYCYLWAVWIEGPLGFGLLMSCRITQAFQLYFIFVKKRLPPVKSYIFLPLVLLPWIFGAAIIHATKPLNDKCHMGLQWTFPVAGLHALYVLALIAFTRAVRHVEFRFDELRDLWKGILVSATSIVIWVTAFVLNEIHEEISWLQVASRFVLLVTGGILVVVFFSISSNQPLLSQISLKKRQNFEFQRMGQALGIPDSGLLFRKEEFRPVDPNEPLDKLLLNKRFRHSFMEFADSCYAGETLHFFEEVYEHGKIPEDDSIRRIYMARHIMEKFIVAGAEMELNLSHKTRQEILTTQDLTHTDLFKNALNEVMQLIKMNLVRDYWSSIYFIKFKEEESCHEAMHKEGYSFSSPRLSSVQGSDDPFYQEHMSKSSRCSSPG | – | binds |

Further lines, results first:

| binding [1] | binding [2] | Binder |
| --- | --- | --- |
| binds | – | G-alpha subunit GPA1 tagged with nYFP (protein, UniProt P18064 1-383) MGLLCSRSRHHTEDTDENTQAAEIERRIEQEAKAEKHIRKLLLLGAGESGKSTIFKQIKLLFQTGFDEGELKSYVPVIHANVYQTIKLLHDGTKEFAQNETDSAKYMLSSESIAIGEKLSEIGGRLDYPRLTKDIAEGIETLWKDPAIQETCARGNELQVPDCTKYLMENLKRLSDINYIPTKEDVLYARVRTTGVVEIQFSPVGENKKSGEVYRLFDVGGQRNERRKWIHLFEGVTAVIFCAAISEYDQTLFEDEQKNRMMETKELFDWVLKQPCFEKTSFMLFLNKFDIFEKKVLDVPLNVCEWFRDYQPVSSGKQEIEHAYEFVKKKFEELYYQNTAPDRVDRVFKIYRTTALDQKLVKKTFKLVDETLRRRNLLEAGLL |
| binds | – | Regulator of G-protein Signaling 1 (AtRGS1) tagged with nYFP (protein, UniProt Q8H1F2 1-459) MASGCALHGGCPSDYVAVAISVICFFVLLSRSVLPCLIHKAPRTNSSSFWIPVIQVISSFNLLFSIMMSVNLLRFRTKHWWRYCYLWAVWIEGPLGFGLLMSCRITQAFQLYFIFVKKRLPPVKSYIFLPLVLLPWIFGAAIIHATKPLNDKCHMGLQWTFPVAGLHALYVLALIAFTRAVRHVEFRFDELRDLWKGILVSATSIVIWVTAFVLNEIHEEISWLQVASRFVLLVTGGILVVVFFSISSNQPLLSQISLKKRQNFEFQRMGQALGIPDSGLLFRKEEFRPVDPNEPLDKLLLNKRFRHSFMEFADSCYAGETLHFFEEVYEHGKIPEDDSIRRIYMARHIMEKFIVAGAEMELNLSHKTRQEILTTQDLTHTDLFKNALNEVMQLIKMNLVRDYWSSIYFIKFKEEESCHEAMHKEGYSFSSPRLSSVQGSDDPFYQEHMSKSSRCSSPG |
